# Laboratory results: the supplement of paper PMC8256030
# The list shows a part of the results. Single values are uncertain here, since repeats match poorly.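 HEK293T cells were given each compound shortly before transfection with a reporter in which red mCherry is followed by the SARS-CoV-2 frameshift element and then GFP in the −1 frame, so GFP appears only after frameshifting.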
# System: SARS-CoV-2 -1 PRF reporter mCherry-FSE-GFP(-1)
# Test: mCherry (red) intensity as percent of control; higher = higher upstream reporter expression
# Details: 10 µM; 24 h; HEK293T
row,Structure (SMILES),mCherry
1,C/C=C(/C)C(=O)O[C@H]1[C@H](OC(C)=O)[C@@]2(CO)C(CC1(C)C)C1=CCC3[C@@]4(C)CCC(O[C@@H]5O[C@H](C(=O)O)[C@@H](O[C@@H]6O[C@H](CO)[C@@H](O)[C@H](O)[C@H]6O)[C@H](O)[C@H]5O[C@@H]5O[C@H](CO)[C@@H](O)[C@H](O)[C@H]5O)[C@](C)(CO)C4CC[C@@]3(C)[C@]1(C)C[C@H]2O.C/C=C(\C)C(=O)O[C@H]1[C@H](OC(C)=O)[C@@]2(CO)C(CC1(C)C)C1=CCC3[C@@]4(C)CCC(O[C@@H]5O[C@H](C(=O)O)[C@@H](O[C@@H]6O[C@H](CO)[C@@H](O)[C@H](O)[C@H]6O)[C@H](O)[C@H]5O[C@@H]5O[C@H](CO)[C@@H](O)[C@H](O)[C@H]5O)[C@](C)(CO)C4CC[C@@]3(C)[C@]1(C)C[C@H]2O (some centres not stated),110%
2,CC1CC(OC(=O)C(O)c2ccccc2)CC(C)(C)C1 (configuration not stated) [cyclandelate],104%
3,CC(C)[C@H](NC(=O)[C@H](CC(=O)O)NC(=O)[C@H](CCCCN)NC(=O)[C@@H](N)CCCN=C(N)N)C(=O)N[C@@H](Cc1ccc(O)cc1)C(=O)O [thymopentin],70.6%
4,CO/N=C(\C(=O)N[C@@H]1C(=O)N2C(C(=O)[O-])=C(C[n+]3ccn4ncccc43)CS[C@H]12)c1nsc(N)n1 [cefozopran],104%
5,CC1=CC(=O)NS(=O)(=O)O1,66%
6,CC(C)(C(=O)O)c1ccc(C(=O)CCCN2CCC(OC(c3ccccc3)c3ccccc3)CC2)cc1 [carebastine],116%
7,CCc1ccc(C(=O)C(C)CN2CCCCC2)cc1 (configuration not stated) [eperisone],112%

# In another format: entries from further up
row	Structure (SMILES)	mCherry
5	CC1=CC(=O)NS(=O)(=O)O1	66%
6	CC(C)(C(=O)O)c1ccc(C(=O)CCCN2CCC(OC(c3ccccc3)c3ccccc3)CC2)cc1 [carebastine]	116%
